# Results deposited as PubChem BioAssay AID1508597 (Cure First, 2020).
# Assay: 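Survival screen with siRNA in ovarian cancer cells derived from patients, with or without rucaparib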 (primary screen)
# System: human ovarian carcinoma lines grown from tumours: OCI-P5x (papillary serous) and OCI-C5x (clear cell)
# Knock-down reagent: siRNA pool against human genes, 1.25 pmol siRNA per well
# Duration: 72 h or 96 h, depending on the cell culture
# Challenge: rucaparib 20 µM (about IC30) or vehicle, present until read-out
# Read-out: 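ATP luminescence measured at 72 or 96 h according to the culture, then normalised and expressed as percent viability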
# Direction: viability, normalised: higher = more viable cells remaining
# Hit rule: 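Active when normalised viability falls below 80 percent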
# Calls: active = viability under 80%; inactive = viability 80% or more
# This is one part, drawn at random, of about 2,100 deposited reagents. 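Calls flag viability under 80% in either arm, not effects specific to rucaparib; the reference for percent is not stated.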 Some reagents were tested in more than one well and are listed for each. Not stated in the record: the 100% reference.
Gene,rucaparib or vehicle,cell line,technical replicate,"viability, normalised (%)",call
PHF23,Rucaparib,OCI-C5x (clear cell),1,49.8,active
PHF23,Rucaparib,OCI-C5x (clear cell),2,46.6,active
PHF23,Rucaparib,OCI-C5x (clear cell),3,39.3,active
PHF23,Rucaparib,OCI-P5x (serous),1,48.2,active
PHF23,Rucaparib,OCI-P5x (serous),2,54.1,active
PHF23,Rucaparib,OCI-P5x (serous),3,45.4,active
PHF23,Vehicle,OCI-C5x (clear cell),1,42.3,active
PHF23,Vehicle,OCI-C5x (clear cell),2,41.8,active
PHF23,Vehicle,OCI-C5x (clear cell),3,41.7,active
PHF23,Vehicle,OCI-P5x (serous),1,51.1,active
PHF23,Vehicle,OCI-P5x (serous),2,54.9,active
PHF23,Vehicle,OCI-P5x (serous),3,51.1,active
PRKG2,Rucaparib,OCI-C5x (clear cell),1,60.4,active
PRKG2,Rucaparib,OCI-C5x (clear cell),2,60.4,active
PRKG2,Rucaparib,OCI-C5x (clear cell),3,68.9,active
PRKG2,Rucaparib,OCI-P5x (serous),1,74.1,active
PRKG2,Rucaparib,OCI-P5x (serous),2,103,inactive
PRKG2,Rucaparib,OCI-P5x (serous),3,91.5,inactive
PRKG2,Vehicle,OCI-C5x (clear cell),1,70,active
PRKG2,Vehicle,OCI-C5x (clear cell),2,64.1,active
PRKG2,Vehicle,OCI-C5x (clear cell),3,80.3,inactive
PRKG2,Vehicle,OCI-P5x (serous),1,102,inactive
PRKG2,Vehicle,OCI-P5x (serous),2,82.7,inactive
PRKG2,Vehicle,OCI-P5x (serous),3,107,inactive
MYO3B,Rucaparib,OCI-C5x (clear cell),1,48.2,active
MYO3B,Rucaparib,OCI-C5x (clear cell),1,61.6,active
MYO3B,Rucaparib,OCI-C5x (clear cell),2,69,active
MYO3B,Rucaparib,OCI-C5x (clear cell),2,51.4,active
MYO3B,Rucaparib,OCI-C5x (clear cell),3,54.9,active
MYO3B,Rucaparib,OCI-C5x (clear cell),3,74.6,active
MYO3B,Rucaparib,OCI-P5x (serous),1,70.1,active
MYO3B,Rucaparib,OCI-P5x (serous),1,70.5,active
MYO3B,Rucaparib,OCI-P5x (serous),2,59.2,active
MYO3B,Rucaparib,OCI-P5x (serous),2,89,inactive
MYO3B,Rucaparib,OCI-P5x (serous),3,102,inactive
MYO3B,Rucaparib,OCI-P5x (serous),3,90.8,inactive
MYO3B,Vehicle,OCI-C5x (clear cell),1,67.6,active
MYO3B,Vehicle,OCI-C5x (clear cell),1,55.6,active
MYO3B,Vehicle,OCI-C5x (clear cell),2,62.4,active
MYO3B,Vehicle,OCI-C5x (clear cell),2,61.6,active
MYO3B,Vehicle,OCI-C5x (clear cell),3,78.7,active
MYO3B,Vehicle,OCI-C5x (clear cell),3,59.5,active
MYO3B,Vehicle,OCI-P5x (serous),1,92.2,inactive
MYO3B,Vehicle,OCI-P5x (serous),1,67.6,active
MYO3B,Vehicle,OCI-P5x (serous),2,74,active
MYO3B,Vehicle,OCI-P5x (serous),2,106,inactive
MYO3B,Vehicle,OCI-P5x (serous),3,97,inactive
MYO3B,Vehicle,OCI-P5x (serous),3,84.8,inactive
